No constants are given. Whether binding was seen depends on the method and setting. Binding seen in cells or lysates may run through a third protein. A yes stands for co-enrichment or nearness to the bait. Other partners may have been found.
Target: malate carrier protein (mouse)
Assay: anti-αBC immunoprecipitation from mouse heart mitochondria, MudPIT proteomics

binding: binds
B1: endogenous alpha B-crystallin (αBC) of mouse heart mitochondria (protein, UniProt P23927 1-175, looked up)
chain: MDIAIHHPWIRRPFFPFHSPSRLFDQFFGEHLLESDLFSTATSLSPFYLRPPSFLRAPSWIDTGLSEMRLEKDRFSVNLDVKHFSPEELKVKVLGDVIEVHGKHEERQDEHGFISREFHRKYRIPADVDPLTITSSLSSDGVLTVNGPRKQVSGPERTIPITREEKPAVAAAPKK

From patent US20120124684A1
